Positions count from the first letter of the chain named. Results are given in words; binding and its absence hold for the method and conditions named. Some results given as binding are weak or reduced against the parent protein; the word gives no strength.
B1: 55C11E4-Hz1 (antibody, human IgG1, kappa, V domains shown)
VH: EVQLVQSGAEVKKPGASVKVSCKASGYTFTDYYMNWVRQAPGQRLEWMGVINPYNGGTNYSQKFQGRVTLTVDKSASTAYMELSSLRSEDTAVYYCARDSNYVGLLDYWGQGTLVTVSS
VL: DIVLTQSPATLSLSPGERATLSCRASQSISNNLHWYQQKPGQAPRLLIKYASQSISGIPARFSGSGSGPDFTLTISSLEPEDFAVYFCQQSNSWPYTFGQGTKVEIKR
notes: Humanized IgG1/kappa
B2: 6F11C10-Hz1 antibody (antibody, human IgG1, kappa, V domains shown)
VH: EVQLVQSGAEVKKPGASVKVSCKASGFTFTDYYMHWVRQAPGQSLEWMGLVYPYNGDISYAQKFQGRVTLTVDTSISTAYMELSRLRSDDTAVYYCARQGNYVNNAIDYWGQGTLVTVSS
VL: DIQMTQSPSSLSASVGDRVTITCKASQNVGNIIAWYQQKPGKSPKALIYLASYRYSGVPSRFSGSGSGTDFTLTISSLQPEDVATYFCQQYSDSPYTFGQGTKVEIKR
notes: Humanized IgG1/kappa
B3: 10F2F3-Hz antibody (antibody, human IgG1, kappa, V domains shown)
VH: QVQLVESGAEVKKPGSSVKVSCKASGYAFSSHWVNWVRQAPGQGLEWMGQIYPGNGDTNYAQKFQGRVTLTADKSTSTAYMELSSLTSEDTAVYFCARWFAYWGQGTLVTVSS
VL: DIQMTQSPSSLSASVGDRVTITCKSSQSLLDGGNQKNYLAWYQQKPGKPPKLLVYFASIRESGVPSRFSGSGSGTDFTLTISSLQPEDFATYYCQQHYNTPWTFGQGTKVEIKR
notes: Humanized
B4: 59B10D3-Hz antibody (antibody, human IgG1, kappa, V domains shown)
VH: EVQLVESGGGLVQPGGSLRLSCAASGFTFSDAWMDWVRQAPGKGLEWVAEIRNKANNHATYYVDSVKGRFTISRDDAKNSVYLQMNSLRAEDTAVYYCTRNNYGSTWTYYAMDYWGQGTLVTVSS
VL: DIQMTQSPSSLSASVGDRVTITCRASQDISNYLNWYQQKPGKAVKLLIYYTSRLHSGVPSRFSGSGSGTDYTLTISSLQPEDFATYYCQQGYTLPLTFGQGTKVEIKR
notes: Humanized; also called 59B10D3-hz1
B5: 87F7F10-Hz (antibody, human IgG1, kappa, V domains shown)
VH: QVQLQESGPGLVKPSETLSLTCTVSGYSITSDFYWNWIRQPPGKGLEWIGYITYDGSTNYNPSLKSRVTISRDTSKNQFSLKLSSVTAADTAVYYCVYGDFNRHAMDYWGQGTLVTVSS
VL: DIVMTQSPDSLAVSLGERATINCRSSQSLFNSRTRKNYLAWYQQKPGQPPKVLIYWASTRESGVPDRFSGSGSGTDFTLTISSLQAEDVAVYYCEQSFYLFTFGQGTKVEIKR
notes: Humanized; also called 87F7F10-hz1
B6: 55C11E4-Hz2 (antibody, human IgG1, kappa, V domains shown)
VH: B1 VH with S61A
VL: B1 VL
notes: Optimized humanized IgG1/kappa; also called 55C11E4-Hz2-biotin
B7: 6F11C10-Hz2 antibody (antibody, human IgG1, kappa, V domains shown)
VH: B2 VH with N55S
VL: B2 VL
notes: Optimized humanized IgG1/kappa; also called 6FC11C0-Hz2; 6F11C10-Hz2-biotin

molecular target: recombinant extracellular domain protein of cynomolgus monkey DLL3 (cyno.DLL3-ECD-His) (cynomolgus monkey); assay: BLI (ForteBio)

binding, binds:
B1
B2
B3
B4
B5

molecular target: recombinant extracellular domain protein of cynomolgus monkey DLL3 (cyno.DLL3-ECD-His) (cynomolgus monkey); assay: ELISA, coated antigen

binding, binds:
B1
B6
B2
B7
B3
B4
B5

— patent US20260166168A1 (MEDILINK THERAPEUTICS SUZHOU, published 2026)
